Earlier results in patent US12616687B2, “Treatment of viral infection, disease or disorder using a selective sir agonist” (Prilenia Neurotherapeutics Ltd., priority 2020, dated 2026).

System: SARS-CoV-2
Settings: viral titer assay; cited from earlier work

In the case of CN1CCC[C@@H]1CCO[C@](C)(c1ccccc1)c1ccc(Cl)cc1 [Clemastine], the “concentration at which anti-viral activity was demonstrated” value is given as 10 µM.
